Source: the supplement of paper PMC7661543
± gives the standard deviation of the averaged measurements. Differences between knockout arms are mostly noise.

System: BT-20
Experiment: relative cell number vs DMSO control (72 h) (% of DMSO); higher = less growth inhibition (more cells)
Method: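 QMAP-Seq: a pool of 5 breast cancer cell lines (ZR-75-1, SKBR3, HCC-38, MDA-MB-231, BT-20), each carrying 12 doxycycline-inducible Cas9 sgRNA perturbations (11 knockouts plus non-targeting sgNT), was treated with compounds for 72 h at four 10-fold doses (10 nM-10 uM or 1 nM-1 uM range). Barcodes were amplified and sequenced, and cell number was interpolated from 293T spike-in standard curves. The result is expressed as % of the median of DMSO wells. Two biological replicates.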

[1] = sgRNA knockout: sgATF3, 1000 nM
[2] = sgRNA knockout: sgATF3, 10000 nM
[3] = sgRNA knockout: sgATF4, 1000 nM
[4] = sgRNA knockout: sgATF4, 10000 nM
[5] = sgRNA knockout: sgATF6, 1000 nM
[6] = sgRNA knockout: sgATF6, 10000 nM
[7] = sgRNA knockout: sgATG7, 1000 nM
[8] = sgRNA knockout: sgATG7, 10000 nM
[9] = sgRNA knockout: sgERN1, 1000 nM
[10] = sgRNA knockout: sgERN1, 10000 nM
[11] = sgRNA knockout: sgHSF1, 1000 nM
[12] = sgRNA knockout: sgHSF1, 10000 nM
[13] = sgRNA knockout: sgHSF2, 1000 nM
[14] = sgRNA knockout: sgHSF2, 10000 nM
[15] = sgRNA knockout: sgKEAP1, 100 nM
[16] = sgRNA knockout: sgKEAP1, 1000 nM
[17] = sgRNA knockout: sgKEAP1, 10000 nM
[18] = sgRNA knockout: sgNFE2L2, 10 nM
[19] = sgRNA knockout: sgNFE2L2, 100 nM
[20] = sgRNA knockout: sgNFE2L2, 1000 nM
[21] = sgRNA knockout: sgNFE2L2, 10000 nM
[22] = sgRNA knockout: sgSLC35F2, 10 nM
[23] = sgRNA knockout: sgSLC35F2, 100 nM
[24] = sgRNA knockout: sgSLC35F2, 1000 nM
[25] = sgRNA knockout: sgSLC35F2, 10000 nM
[26] = sgRNA knockout: sgXBP1, 1000 nM
[27] = sgRNA knockout: sgXBP1, 10000 nM

With `CN1CCN(CCCN2c3ccccc3Sc3ccc(C(F)(F)F)cc32)CC1` [Trifluoperazine] the relative cell number (sgRNA knockout: sgATF3, 10 nM) was 89.8 ± 13, the relative cell number (sgRNA knockout: sgATF3, 100 nM) was 87.3 ± 10 and the relative cell number [1] was 85.4 ± 3.6. For the same molecule, the relative cell number [2] was 75.7 ± 18, the relative cell number (sgRNA knockout: sgATF4, 10 nM) was 93.3 ± 43 and the relative cell number (sgRNA knockout: sgATF4, 100 nM) was 101 ± 9.6. It also gave a relative cell number [3] of 72.6 ± 5.1, a relative cell number [4] of 77.8 ± 1.6 and a relative cell number (sgRNA knockout: sgATF6, 10 nM) of 76.1 ± 12. For the same molecule, the relative cell number (sgRNA knockout: sgATF6, 100 nM) was 106 ± 7.2, the relative cell number [5] was 108 ± 23 and the relative cell number [6] was 85.8 ± 2.9. For the same molecule, the relative cell number (sgRNA knockout: sgATG7, 10 nM) was 93.7 ± 7.9, the relative cell number (sgRNA knockout: sgATG7, 100 nM) was 106 ± 12 and the relative cell number [7] was 107 ± 2. The relative cell number [8] was 75.8 ± 2.5, the relative cell number (sgRNA knockout: sgERN1, 10 nM) was 86.7 ± 18 and the relative cell number (sgRNA knockout: sgERN1, 100 nM) was 91.6 ± 9.7. For the same molecule, the relative cell number [9] was 94.6 ± 11, the relative cell number [10] was 68.3 ± 4.1 and the relative cell number (sgRNA knockout: sgHSF1, 10 nM) was 93.9 ± 27. The relative cell number (sgRNA knockout: sgHSF1, 100 nM) was 93.7 ± 8.9, the relative cell number [11] was 89.5 ± 4.9 and the relative cell number [12] was 76.2 ± 4.8. The relative cell number (sgRNA knockout: sgHSF2, 10 nM) was 88.9 ± 6.3, the relative cell number (sgRNA knockout: sgHSF2, 100 nM) was 78.7 ± 8.5 and the relative cell number [13] was 80.6 ± 5.4. For the same molecule, the relative cell number [14] was 69.5 ± 6.3, the relative cell number (sgRNA knockout: sgKEAP1, 10 nM) was 88.6 ± 8.4 and the relative cell number [15] was 93.6 ± 12. It also gave a relative cell number [16] of 97.2 ± 7.1, a relative cell number [17] of 81.2 ± 4.4 and a relative cell number [18] of 94.7 ± 38. For the same molecule, the relative cell number [19] was 100 ± 30, the relative cell number [20] was 84.6 ± 0.73 and the relative cell number [21] was 67.5 ± 13. It also gave a relative cell number [22] of 110 ± 4.1, a relative cell number [23] of 97 ± 7.2 and a relative cell number [24] of 91.5 ± 3.3. For the same molecule, the relative cell number [25] was 88.2 ± 7.6, the relative cell number (sgRNA knockout: sgXBP1, 10 nM) was 99.1 ± 18 and the relative cell number (sgRNA knockout: sgXBP1, 100 nM) was 107 ± 23. It also gave a relative cell number [26] of 112 ± 7.9 and a relative cell number [27] of 83.1 ± 6.3.

`CN1CCc2c(c3ccccc3n2Cc2ccc(C(=O)NO)cc2)C1` [TubastatinA] showed a relative cell number (sgRNA knockout: sgATF3, 10 nM) of 92 ± 4.7, a relative cell number (sgRNA knockout: sgATF3, 100 nM) of 84.6 ± 6.2 and a relative cell number [1] of 113 ± 2.8. For the same molecule, the relative cell number [2] was 75.6 ± 19, the relative cell number (sgRNA knockout: sgATF4, 10 nM) was 89.9 ± 16 and the relative cell number (sgRNA knockout: sgATF4, 100 nM) was 98.8 ± 16. It also gave a relative cell number [3] of 111 ± 15, a relative cell number [4] of 83.9 ± 6.2 and a relative cell number (sgRNA knockout: sgATF6, 10 nM) of 101 ± 6. It also gave a relative cell number (sgRNA knockout: sgATF6, 100 nM) of 74.8 ± 4.6, a relative cell number [5] of 106 ± 7.4 and a relative cell number [6] of 79.06 ± 0.37. The relative cell number (sgRNA knockout: sgATG7, 10 nM) was 95.5 ± 10, the relative cell number (sgRNA knockout: sgATG7, 100 nM) was 87.5 ± 2 and the relative cell number [7] was 104.3 ± 0.32. It also gave a relative cell number [8] of 82.8 ± 5.9, a relative cell number (sgRNA knockout: sgERN1, 10 nM) of 98.9 ± 8.2 and a relative cell number (sgRNA knockout: sgERN1, 100 nM) of 93.1 ± 12. The relative cell number [9] was 96.58 ± 0.48, the relative cell number [10] was 73.1 ± 6.8 and the relative cell number (sgRNA knockout: sgHSF1, 10 nM) was 88.6 ± 19. For the same molecule, the relative cell number (sgRNA knockout: sgHSF1, 100 nM) was 88.45 ± 0.46, the relative cell number [11] was 98.6 ± 12 and the relative cell number [12] was 86.6 ± 24. For the same molecule, the relative cell number (sgRNA knockout: sgHSF2, 10 nM) was 71.3 ± 25, the relative cell number (sgRNA knockout: sgHSF2, 100 nM) was 76.5 ± 17 and the relative cell number [13] was 102 ± 27. For the same molecule, the relative cell number [14] was 88 ± 14, the relative cell number (sgRNA knockout: sgKEAP1, 10 nM) was 87.9 ± 13 and the relative cell number [15] was 84.7 ± 8.8. It also gave a relative cell number [16] of 94.7 ± 22, a relative cell number [17] of 80.7 ± 3.2 and a relative cell number [18] of 83.4 ± 15. The relative cell number [19] was 66.7 ± 8.6, the relative cell number [20] was 82.2 ± 11 and the relative cell number [21] was 83.4 ± 18. For the same molecule, the relative cell number [22] was 77 ± 8.7, the relative cell number [23] was 84.7 ± 30 and the relative cell number [24] was 96.7 ± 16. It also gave a relative cell number [25] of 72.6 ± 0.82, a relative cell number (sgRNA knockout: sgXBP1, 10 nM) of 80.8 ± 5.3 and a relative cell number (sgRNA knockout: sgXBP1, 100 nM) of 85.8 ± 14. The relative cell number [26] was 102 ± 4.9 and the relative cell number [27] was 79.2 ± 7.5.

`CCC[C@H](NC(=O)/C(C#N)=C/c1cccc(Br)n1)c1ccccc1` [WP1130] showed a relative cell number (sgRNA knockout: sgATF3, 10 nM) of 92.8 ± 16, a relative cell number (sgRNA knockout: sgATF3, 100 nM) of 110 ± 14 and a relative cell number [1] of 95.6 ± 12. For the same molecule, the relative cell number [2] was 7.59 ± 2, the relative cell number (sgRNA knockout: sgATF4, 10 nM) was 103 ± 12 and the relative cell number (sgRNA knockout: sgATF4, 100 nM) was 92.8 ± 9.5. The relative cell number [3] was 92.5 ± 9.1, the relative cell number [4] was 8.71 ± 1.3 and the relative cell number (sgRNA knockout: sgATF6, 10 nM) was 95.4 ± 18. It also gave a relative cell number (sgRNA knockout: sgATF6, 100 nM) of 81.4 ± 11, a relative cell number [5] of 109 ± 9.1 and a relative cell number [6] of 8 ± 0.51. It also gave a relative cell number (sgRNA knockout: sgATG7, 10 nM) of 101 ± 17, a relative cell number (sgRNA knockout: sgATG7, 100 nM) of 95.2 ± 22 and a relative cell number [7] of 95.6 ± 1.3. The relative cell number [8] was 8.2 ± 2, the relative cell number (sgRNA knockout: sgERN1, 10 nM) was 96.2 ± 12 and the relative cell number (sgRNA knockout: sgERN1, 100 nM) was 114 ± 10. The relative cell number [9] was 96.1 ± 11, the relative cell number [10] was 8.01 ± 0.54 and the relative cell number (sgRNA knockout: sgHSF1, 10 nM) was 104 ± 8.6. For the same molecule, the relative cell number (sgRNA knockout: sgHSF1, 100 nM) was 89.2 ± 2.6, the relative cell number [11] was 109 ± 2.5 and the relative cell number [12] was 9.11 ± 2.1. The relative cell number (sgRNA knockout: sgHSF2, 10 nM) was 105 ± 20, the relative cell number (sgRNA knockout: sgHSF2, 100 nM) was 95.6 ± 5.3 and the relative cell number [13] was 114 ± 18. It also gave a relative cell number [14] of 10.1 ± 0.69, a relative cell number (sgRNA knockout: sgKEAP1, 10 nM) of 99.1 ± 2.6 and a relative cell number [15] of 94.5 ± 1.2. The relative cell number [16] was 101 ± 1.8, the relative cell number [17] was 8.12 ± 0.67 and the relative cell number [18] was 92.2 ± 21. The relative cell number [19] was 98.7 ± 15, the relative cell number [20] was 109 ± 8.4 and the relative cell number [21] was 12.6 ± 7.3. It also gave a relative cell number [22] of 93.42 ± 0.55, a relative cell number [23] of 90.1 ± 14 and a relative cell number [24] of 93.6 ± 7.9. It also gave a relative cell number [25] of 9.46 ± 3.3, a relative cell number (sgRNA knockout: sgXBP1, 10 nM) of 114 ± 8.2 and a relative cell number (sgRNA knockout: sgXBP1, 100 nM) of 110 ± 21. It also gave a relative cell number [26] of 108 ± 9.9 and a relative cell number [27] of 9.3 ± 4.
